Measurements taken from the supplement of paper PMC10689618.
The list shows a part of the results. Repeats are few or missing, and single values can be far off.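 Labelled rat cortical synaptosomes were engulfed by primary human fetal astrocytes. Engulfment equaled a red/green ratio, corrected for calcein live-cell signal and normalized to the plate median. Compounds were toxic when calcein dropped over 30%, and reduced phagocytosis when below 70% of the median above 5 µM.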

Assays:
[1] = tested on: Human fetal astrocytes; test: loss of total cells relative to no-compound high-control median (toxicity); higher = more toxic (fewer cells); conditions: 24 h
[2] = tested on: Human fetal astrocytes; test: synaptosome phagocytosis (pHrodo/calcein intensity ratio) relative to plate median of data wells; higher = more phagocytosis; conditions: 24 h

| Compound | loss of total cells ([1]; 1.39 µM) [%] | loss of total cells ([1]; 2.78 µM) [%] | loss of total cells ([1]; 5.56 µM) [%] | loss of total cells ([1]; 11.11 µM) [%] | loss of total cells ([1]; 22.22 µM) [%] | synaptosome phagocytosis ([2]; 1.39 µM) [%] | synaptosome phagocytosis ([2]; 2.78 µM) [%] | synaptosome phagocytosis ([2]; 5.56 µM) [%] | synaptosome phagocytosis ([2]; 11.11 µM) [%] | synaptosome phagocytosis ([2]; 22.22 µM) [%] |
| --- | --- | --- | --- | --- | --- | --- | --- | --- | --- | --- |
| COc1ccc(/C=C/C(=O)O)cc1OC | -9.8 | 17.9 | -13 | 46.5 | -13 | 84.2 | 86.3 | 92.4 | 126 | 137 |
| C/C=C/c1ccc(OC)cc1 | -27.4 | -21.4 | -5 | 21.3 | 7.8 | 77.1 | 94.2 | 88.8 | 115 | 95.9 |
| CCCOc1ccc2[nH]c(NC(=O)OC)nc2c1 | -29.8 | -31 | -5.6 | 10.8 | 6.5 | 97 | 86.5 | 108 | 107 | 111 |
| Oc1cc2c(cc1O)C1c3ccc(O)c(O)c3OCC1(O)C2 (stereo not given) | -18.5 | -4.7 | 30.5 | 37.4 | 30.7 | 96.1 | 116 | 106 | 80.5 | 95.6 |
| COc1ccc(C(=O)CC(=O)c2ccc(C(C)(C)C)cc2)cc1 | -0.8 | -31.7 | 2.5 | 1 | 9.7 | 109 | 120 | 110 | 91.3 | 114 |
| CC(=O)Nc1cc2ccccc2oc1=O | 11.2 | 13.4 | -41.3 | 18 | 15.9 | 83.7 | 71.2 | 0 | 133 | 137 |
| Cc1ccc(C(=O)c2ccc(CC(=O)O)n2C)cc1 | 25 | -12 | 22.1 | 12.3 | 3.3 | 94 | 66.4 | 79 | 31.5 | 105 |
| CC(C)[C@@H](C)/C=C/[C@@H](C)[C@H]1CC[C@H]2C3=CC=C4C[C@@H](O)CC[C@]4(C)[C@H]3CC[C@]12C [Ergosterol] | -2.5 | 5.3 | -7.6 | 36.8 | 17.4 | 83.4 | 118 | 75.5 | 129 | 124 |
| CCCCC(=O)N(Cc1ccc(-c2ccccc2-c2nnn[nH]2)cc1)[C@H](C(=O)O)C(C)C | 5 | 17.4 | 20.7 | -4.7 | 18.7 | 92.1 | 96.5 | 128 | 95.3 | 114 |
| C[C@H]1O[C@@H](O[C@H]2[C@@H](O)C[C@H](O[C@H]3[C@@H](O)C[C@H](O[C@H]4CC[C@@]5(C)[C@H](CC[C@@H]6[C@@H]5C[C@@H](O)[C@]5(C)[C@@H](C7=CC(=O)OC7)CC[C@]65O)C4)O[C@@H]3C)O[C@@H]2C)C[C@H](O)[C@@H]1O | 36.5 | 24.7 | 30 | 48.7 | 42.2 | 55.8 | 55 | 46.7 | 52 | 44.4 |
| NC(=O)c1ccc[n+]([C@@H]2O[C@H](COP(=O)([O-])OP(=O)(O)OC[C@H]3O[C@@H](n4cnc5c(N)ncnc54)[C@H](O)[C@@H]3O)[C@@H](O)[C@H]2O)c1 | -20.7 | -16.2 | 11.1 | 6.3 | 10.8 | 107 | 107 | 123 | 131 | 113 |
| NCCC(=O)c1ccccc1N | -28.7 | 2.5 | 1.5 | 12.2 | 0 | 70.7 | 79.9 | 103 | 158 | 100 |
| Oc1c(I)cc(I)c2cccnc12 | 15.7 | -18 | -2.1 | 22.2 | 16.1 | 129 | 114 | 82.5 | 43.9 | 86.8 |
| Oc1ccc(Cl)c2cccnc12 | 6.2 | 17.3 | 2.1 | 37.8 | 49.5 | 62.4 | 80.9 | 72.8 | 32.7 | 54.9 |
| Cc1c(C(N)=O)cc([N+](=O)[O-])cc1[N+](=O)[O-] | 20.6 | 24.2 | 21 | -9.6 | 6.1 | 93.6 | 136 | 99.8 | 92.2 | 154 |
| CC(=O)N(O)CCCCCNC(=O)CCC(=O)N(O)CCCCCNC(=O)CCC(=O)N(O)CCCCCN | -6.2 | -21.4 | -17.4 | -16.4 | 7.6 | 86.5 | 98.9 | 102 | 60.7 | 76.4 |
| CCS(=O)(=O)CCn1c([N+](=O)[O-])cnc1C | -9.7 | -35.7 | 1.2 | 1.6 | 2.2 | 115 | 125 | 112 | 95.6 | 120 |
| CC1=C2C(=CO[C@H](C)[C@H]2C)C(=O)C(C(=O)O)=C1O | -9.8 | 3.3 | 1.5 | 21.9 | -0.4 | 100 | 100 | 100 | 81.2 | 88.6 |
| COc1cc2c(cc1OC)C(=O)C(CC1CCN(Cc3ccccc3)CC1)C2 (stereo not given) [Donepezil] | -29.8 | -28.6 | -9.3 | 39 | -5.3 | 91.2 | 91.2 | 94.1 | 146 | 102 |
| COc1ccc(-c2oc3ccccc3c(=O)c2OC)cc1 | -27 | -12.6 | -2.9 | -6.1 | -13.3 | 87.7 | 82.5 | 92.6 | 88.2 | 98 |
| CCCCOC(=O)c1ccc(N)cc1 | -3.3 | -7.1 | -5.6 | -7.2 | -14.9 | 111 | 103 | 108 | 94.4 | 86.2 |

4 consecutive compounds out of the list so far, for reference:

| Compound | loss of total cells ([1]; 1.39 µM) [%] | loss of total cells ([1]; 2.78 µM) [%] | loss of total cells ([1]; 5.56 µM) [%] | loss of total cells ([1]; 11.11 µM) [%] | loss of total cells ([1]; 22.22 µM) [%] | synaptosome phagocytosis ([2]; 1.39 µM) [%] | synaptosome phagocytosis ([2]; 2.78 µM) [%] | synaptosome phagocytosis ([2]; 5.56 µM) [%] | synaptosome phagocytosis ([2]; 11.11 µM) [%] | synaptosome phagocytosis ([2]; 22.22 µM) [%] |
| --- | --- | --- | --- | --- | --- | --- | --- | --- | --- | --- |
| CC(=O)Nc1cc2ccccc2oc1=O | 11.2 | 13.4 | -41.3 | 18 | 15.9 | 83.7 | 71.2 | 0 | 133 | 137 |
| Cc1ccc(C(=O)c2ccc(CC(=O)O)n2C)cc1 | 25 | -12 | 22.1 | 12.3 | 3.3 | 94 | 66.4 | 79 | 31.5 | 105 |
| CC(C)[C@@H](C)/C=C/[C@@H](C)[C@H]1CC[C@H]2C3=CC=C4C[C@@H](O)CC[C@]4(C)[C@H]3CC[C@]12C [Ergosterol] | -2.5 | 5.3 | -7.6 | 36.8 | 17.4 | 83.4 | 118 | 75.5 | 129 | 124 |
| CCCCC(=O)N(Cc1ccc(-c2ccccc2-c2nnn[nH]2)cc1)[C@H](C(=O)O)C(C)C | 5 | 17.4 | 20.7 | -4.7 | 18.7 | 92.1 | 96.5 | 128 | 95.3 | 114 |
